We go through one substance from publication PMC3891358.

Protein sequences, listed by entry. Tags and fused reporters are not part of them.
UniProt Q63690: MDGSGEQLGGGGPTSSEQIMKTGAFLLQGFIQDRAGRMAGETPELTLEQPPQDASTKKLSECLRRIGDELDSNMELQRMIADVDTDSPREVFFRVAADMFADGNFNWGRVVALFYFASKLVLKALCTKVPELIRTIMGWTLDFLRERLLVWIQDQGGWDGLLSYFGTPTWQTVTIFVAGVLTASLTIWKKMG
UniProt M0RC65: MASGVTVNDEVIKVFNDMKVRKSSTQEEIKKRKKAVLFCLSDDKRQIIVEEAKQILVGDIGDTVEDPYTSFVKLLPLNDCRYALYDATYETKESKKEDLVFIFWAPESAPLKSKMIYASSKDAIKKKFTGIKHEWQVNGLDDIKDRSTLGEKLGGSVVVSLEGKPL

No constants are given. Whether binding was seen depends on the method and setting. Binding seen in cells or lysates may run through a third protein. These calls come from enrichment with a bait or labelling near it, and not all partners need be listed. For some assays here: No binding means not detected with the bait.

Experiment [1] deals with Bax (rat (endogenous in late OPCs of Sprague-Dawley rats and in white matter of Wistar rats)) (UniProt Q63690). The experiment in a line: condition: only OPCs treated with glutamate (500 μM); affinity purification with mass spectrometry; as a3, late OPCs treated with glutamate.
The target is the same in experiment [2]. The experiment in a line: affinity purification with mass spectrometry; IP of total Bax (N20) from IGF-I-treated late OPCs, 1% CHAPS lysis buffer; SDS/PAGE, ~20 kDa band excised, ESI-LC-MS/MS.

For cofilin (from UniProt M0RC65 1-166), the values for the binding entry in experiment [1] and in experiment [2] were “no binding” and “binds”, respectively.
